Results reported in publication doi:10.1101/2025.10.20.683495.

Legend:
[1] = biological target: GiARF1FA-HA (Giardia intestinalis) (UniProt A8BCC2); test: affinity purification with mass spectrometry
[2] = biological target: GiARF1FB1-HA (Giardia intestinalis) (UniProt A8BES2); test: affinity purification with mass spectrometry

| Substance | binding [1] | binding [2] |
| --- | --- | --- |
| FYVE domain-containing protein (GL50803_16653) (from UniProt A8BDZ8) | binds | binds |
| SAR1 GTPase (from UniProt Q8MQT8) | – | binds |
| WD40 domain-containing protein (GL50803_10822) (from UniProt A8B6Z3) | – | binds |

No constants are given. Whether binding was seen depends on the method and setting. In cells and extracts the contact can be indirect. Here binding means that the protein was enriched with, or labelled near, the bait; the list need not be complete.
